In paper PMC8744257:
No constants are given. Whether binding was seen depends on the method and setting. Binding seen in cells or lysates may run through a third protein. Some entries that bind do so weakly or less than the wild type. Sequences can lack the tags named with a protein.

Tests used:
[1] = target: T1, BioID2-tagged wildtype human CLUH (BioID2-3xHA-CLUH) (human) (UniProt O75153); experiment: co-IP; anti-HA magnetic beads on total extracts of HCT116 stably expressing BioID2-3xHA-tagged CLUH, CLUH∆TPR or GFP; endogenous CLUH and SPAG5 detected by western blot; also after SPAG5 knock-down (Fig. S4)
T1 sequence: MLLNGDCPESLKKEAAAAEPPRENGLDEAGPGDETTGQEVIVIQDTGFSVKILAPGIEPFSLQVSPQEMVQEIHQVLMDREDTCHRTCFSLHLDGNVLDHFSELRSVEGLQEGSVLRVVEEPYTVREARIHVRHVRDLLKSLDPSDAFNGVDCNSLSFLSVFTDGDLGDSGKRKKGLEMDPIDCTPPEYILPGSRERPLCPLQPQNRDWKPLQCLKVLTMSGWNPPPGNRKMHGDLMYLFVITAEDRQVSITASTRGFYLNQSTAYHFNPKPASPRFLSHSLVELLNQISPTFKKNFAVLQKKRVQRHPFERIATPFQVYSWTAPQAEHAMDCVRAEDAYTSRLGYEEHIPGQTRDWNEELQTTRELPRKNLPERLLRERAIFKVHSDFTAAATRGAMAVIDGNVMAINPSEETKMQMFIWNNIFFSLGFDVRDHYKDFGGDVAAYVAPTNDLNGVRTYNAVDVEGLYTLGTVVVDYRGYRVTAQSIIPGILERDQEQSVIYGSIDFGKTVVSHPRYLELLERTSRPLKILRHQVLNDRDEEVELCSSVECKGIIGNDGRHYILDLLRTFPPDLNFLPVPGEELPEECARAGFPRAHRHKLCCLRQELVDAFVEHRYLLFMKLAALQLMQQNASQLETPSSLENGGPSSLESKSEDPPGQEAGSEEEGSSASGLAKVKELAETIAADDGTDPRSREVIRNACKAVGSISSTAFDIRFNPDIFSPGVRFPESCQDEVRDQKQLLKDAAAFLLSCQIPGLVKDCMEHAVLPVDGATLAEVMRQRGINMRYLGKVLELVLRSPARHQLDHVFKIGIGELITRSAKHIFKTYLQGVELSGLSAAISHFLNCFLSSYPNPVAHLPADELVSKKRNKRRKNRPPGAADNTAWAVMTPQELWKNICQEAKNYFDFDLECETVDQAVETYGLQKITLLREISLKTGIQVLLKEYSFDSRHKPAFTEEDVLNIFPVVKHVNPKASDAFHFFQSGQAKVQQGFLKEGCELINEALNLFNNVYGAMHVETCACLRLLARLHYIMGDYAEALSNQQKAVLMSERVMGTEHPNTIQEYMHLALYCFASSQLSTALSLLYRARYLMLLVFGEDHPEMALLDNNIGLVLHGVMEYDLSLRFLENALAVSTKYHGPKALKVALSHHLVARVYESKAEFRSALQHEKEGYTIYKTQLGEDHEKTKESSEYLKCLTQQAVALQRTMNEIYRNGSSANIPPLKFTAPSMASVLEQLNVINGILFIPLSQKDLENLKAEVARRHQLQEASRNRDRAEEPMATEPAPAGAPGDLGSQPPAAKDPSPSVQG

[2] = target: T2, ectopically expressed 3xHA-CLUH protein (co-expressed with GFP-tagged proteins) (not stated (human or mouse cDNA cloned)) (UniProt Q5SW19); experiment: co-IP; 3xHA-CLUH as bait in HCT116 expressing GFP-SPAG5 or GFP-KNSTRN; extracts with or without RNase treatment before the pull-down (Figs. S2A-C)
T2 sequence: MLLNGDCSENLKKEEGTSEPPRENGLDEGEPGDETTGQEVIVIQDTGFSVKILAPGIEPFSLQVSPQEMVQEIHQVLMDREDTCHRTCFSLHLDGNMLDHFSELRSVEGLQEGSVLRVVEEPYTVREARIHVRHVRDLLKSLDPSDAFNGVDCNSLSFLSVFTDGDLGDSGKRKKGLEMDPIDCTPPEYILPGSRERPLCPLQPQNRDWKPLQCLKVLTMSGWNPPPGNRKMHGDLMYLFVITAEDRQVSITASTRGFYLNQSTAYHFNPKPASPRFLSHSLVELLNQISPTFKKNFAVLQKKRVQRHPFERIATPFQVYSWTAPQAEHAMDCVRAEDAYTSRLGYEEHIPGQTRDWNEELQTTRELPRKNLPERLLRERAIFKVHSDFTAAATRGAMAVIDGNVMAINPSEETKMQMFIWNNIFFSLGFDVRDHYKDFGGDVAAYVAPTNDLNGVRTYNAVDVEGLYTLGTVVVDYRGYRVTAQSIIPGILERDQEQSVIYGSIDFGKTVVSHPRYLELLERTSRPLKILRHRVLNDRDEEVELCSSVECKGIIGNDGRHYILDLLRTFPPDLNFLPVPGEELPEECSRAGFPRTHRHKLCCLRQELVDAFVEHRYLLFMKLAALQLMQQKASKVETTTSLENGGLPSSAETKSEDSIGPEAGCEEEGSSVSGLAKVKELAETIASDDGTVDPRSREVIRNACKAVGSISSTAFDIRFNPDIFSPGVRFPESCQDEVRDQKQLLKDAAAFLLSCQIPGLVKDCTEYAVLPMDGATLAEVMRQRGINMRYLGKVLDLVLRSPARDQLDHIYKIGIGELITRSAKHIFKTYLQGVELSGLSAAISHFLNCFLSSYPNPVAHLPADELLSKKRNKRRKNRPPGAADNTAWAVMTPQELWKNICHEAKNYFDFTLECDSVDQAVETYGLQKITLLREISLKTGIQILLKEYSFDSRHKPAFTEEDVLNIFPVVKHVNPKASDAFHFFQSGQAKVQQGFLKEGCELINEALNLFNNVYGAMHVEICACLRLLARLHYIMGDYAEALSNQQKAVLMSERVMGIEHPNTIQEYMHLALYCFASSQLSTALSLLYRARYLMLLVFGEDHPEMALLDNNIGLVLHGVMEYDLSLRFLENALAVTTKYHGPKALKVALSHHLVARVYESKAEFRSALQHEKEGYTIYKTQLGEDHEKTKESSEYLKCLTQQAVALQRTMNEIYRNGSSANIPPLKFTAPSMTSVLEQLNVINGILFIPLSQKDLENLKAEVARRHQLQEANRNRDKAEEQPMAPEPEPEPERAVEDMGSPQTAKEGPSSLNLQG

B1: SPAG5 (endogenous, HCT116) (protein, UniProt Q96R06 1-1193)
chain: MWRVKKLSLSLSPSPQTGKPSMRTPLRELTLQPGALTNSGKRSPACSSLTPSLCKLGLQEGSNNSSPVDFVNNKRTDLSSEHFSHSSKWLETCQHESDEQPLDPIPQISSTPKTSEEAVDPLGNYMVKTIVLVPSPLGQQQDMIFEARLDTMAETNSISLNGPLRTDDLVREEVAPCMGDRFSEVAAVSEKPIFQESPSHLLEESPPNPCSEQLHCSKESLSSRTEAVREDLVPSESNAFLPSSVLWLSPSTALAADFRVNHVDPEEEIVEHGAMEEREMRFPTHPKESETEDQALVSSVEDILSTCLTPNLVEMESQEAPGPAVEDVGRILGSDTESWMSPLAWLEKGVNTSVMLENLRQSLSLPSMLRDAAIGTTPFSTCSVGTWFTPSAPQEKSTNTSQTGLVGTKHSTSETEQLLCGRPPDLTALSRHDLEDNLLSSLVILEVLSRQLRDWKSQLAVPHPETQDSSTQTDTSHSGITNKLQHLKESHEMGQALQQARNVMQSWVLISKELISLLHLSLLHLEEDKTTVSQESRRAETLVCCCFDLLKKLRAKLQSLKAEREEARHREEMALRGKDAAEIVLEAFCAHASQRISQLEQDLASMREFRGLLKDAQTQLVGLHAKQEELVQQTVSLTSTLQQDWRSMQLDYTTWTALLSRSRQLTEKLTVKSQQALQERDVAIEEKQEVSRVLEQVSAQLEECKGQTEQLELENSRLATDLRAQLQILANMDSQLKELQSQHTHCAQDLAMKDELLCQLTQSNEEQAAQWQKEEMALKHMQAELQQQQAVLAKEVRDLKETLEFADQENQVAHLELGQVECQLKTTLEVLRERSLQCENLKDTVENLTAKLASTIADNQEQDLEKTRQYSQKLGLLTEQLQSLTLFLQTKLKEKTEQETLLLSTACPPTQEHPLPNDRTFLGSILTAVADEEPESTPVPLLGSDKSAFTRVASMVSLQPAETPGMEESLAEMSIMTTELQSLCSLLQESKEEAIRTLQRKICELQARLQAQEEQHQEVQKAKEADIEKLNQALCLRYKNEKELQEVIQQQNEKILEQIDKSGELISLREEVTHLTRSLRRAETETKVLQEALAGQLDSNCQPMATNWIQEKVWLSQEVDKLRVMFLEMKNEKEKLMIKFQSHRNILEENLRRSDKELEKLDDIVQHIYKTLLSIPEVVRGCKELQGLLEFLS
binding [1]: binds

B2: GFP-SPAG5 (protein, UniProt Q96R06 1-1193)
chain: B1 chain
binding [2]: binds

B3: GFP-KNSTRN (protein, UniProt Q9Y448 1-316)
chain: MAAPEAPPLDRVFRTTWLSTECDSHPLPPSYRKFLFETQAADLAGGTTVAAGNLLNESEKDCGQDRRAPGVQPCRLVTMTSVVKTVYSLQPPSALSGGQPADTQTRATSKSLLPVRSKEVDVSKQLHSGGPENDVTKITKLRRENGQMKATDTATRRNVRKGYKPLSKQKSEEELKDKNQLLEAVNKQLHQKLTETQGELKDLTQKVELLEKFRDNCLAILESKGLDPALGSETLASRQESTTDHMDSMLLLETLQEELKLFNETAKKQMEELQALKVKLEMKEERVRFLEQQTLCNNQVNDLTTALKEMEQLLEM
binding [2]: binds
